According to US4189499A, “Lysine 4-allyloxy-3-chlorophenylacetate and method of its preparation” (priority 1979, dated 1980):
“And” between values parts separate entries of the source, which are not always exact repeats. Equal values may be shown once. At least one read-out could not be matched to a standard name with certainty.

Key:
[1] = Extent of availability after different routes, intravenous administration as reference; type: in vivo, rabbit; conditions: ± S.E.M.; for Theoretical AUC: fitted curve Co/Ke; for Theoretical AUC / Practical AUC: listed as Lysine Salt; for Practical AUC: trapezoidal method
Method: (§1) The following pharmacological experimentation was carried out in order to estimate the comparative absorption and bioavailability through various administration routes in rabbits of Alclofenac acid and its lysine salt.

[2] = Pharmacokinetics after i.v. injection in rabbits; type: in vivo; conditions: i.v. 90 mg/kg (as acid), individual, in order Rabbit I, II, III, IV
Method: as §1

C=CCOc1ccc(CC(=O)O)cc1Cl [Alclofenac-Lysine, lysine 4-allyloxy-3-chlorophenylacetate]
Practical AUC o → 4h ([1]; P.O. 90 mg/kg, 0-4 h, 90 mg/kg, 240 min): 32.45 ± 2 µg·min/L
Theoretical AUC ([1]; P.O. 90 mg/kg, 90 mg/kg): 139.1 ± 14 µg·min/L
Practical AUC ([1]; P.O. 90 mg/kg, 90 mg/kg): 137.8 ± 11 µg·min/L
Practical AUC o → 2h ([1]; Rectal 100 mg/kg, 0-2 h, 100 mg/kg, 120 min): 35.23 ± 2.6 µg·min/L
Theoretical AUC ([1]; Rectal 100 mg/kg, 100 mg/kg): 166.7 ± 12 µg·min/L
Practical AUC ([1]; Rectal 100 mg/kg, 100 mg/kg): 173.3 ± 14 µg·min/L
AUC Total [2]: 160.4 µg·min/L and 142.6 µg·min/L and 248.5 µg·min/L and 121.3 µg·min/L
√1 [2]: 0.189 L/kg and 0.188 L/kg and 0.204 L/kg
√2 [2]: 0.345 L/kg and 0.432 L/kg and 0.256 L/kg and 0.537 L/kg
